This is an account of results in PubChem BioAssay AID2685 (National Center for Advancing Translational Sciences (NCATS), 2010).

The list shows a part of the results. These are further read-outs of the screen, such as a control signal, another cell line or another target. No call is given for them. Most of these compounds were active or inconclusive in the main read-out, so they are no random draw. Words in brackets tell the shape of the fitted curve; partial curves, single points and poor fits give uncertain potencies.

The assay can be described thus: qHTS Assay for Lipid Storage Modulators in Drosophila S3 Cells.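 On cell number change: cells counted by Cell Tracker Red CMTPX staining in the red channel.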 The conditions noted are these: BODIPY lipid droplet fluorescence, 18-24 h; for cell number change: measured here: cell count max response, cells fed with added oleic acid. In short, it runs like this:
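Laser-scanning cytometry quantifies lipid droplet accumulation (500–530 nm total intensity; droplet/cell object ratio) in oleic acid-fed (400 uM added) Drosophila S3 cells treated with a concentration series. 20 uM Triacsin C defined 100% inhibition.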
(qHTS replaces the single test concentration by a dilution series.)

Where [1] appears, read: measured here: cell number channel AC50, cells fed with added oleic acid.
The mark [2] stands for this setting: measured here: lipid fluorescence (Fed channel) AC50, cells fed with added oleic acid.

As to `O=C(CCNC(=O)c1ccco1)Nc1ccccc1`, the cell number change was -6.67%.
In general, AC50 refers to the concentration at which the activity in the assay is half-maximal. Low values mean greater potency, high ones weaker potency. For `O=C(CCN1CCN(C/C=C/c2ccccc2)CC1)Nc1ccccc1Cl`, the AC50 under setting [1] was 5.17 µM [rising, partial curve].
Take `O=C(O)COc1ccccc1C1C2C(=O)N(c3ccc(F)cc3)C(=O)C2ON1c1ccccc1` (stereo not drawn): the cell number change was -18.7%. The AC50 under setting [2] was 7.31 µM [falling, partial curve].
In the case of `CC1(C)Oc2ccc3ccc(=O)oc3c2C[C@H]1O`, the cell number change is -32.4%. Moreover, the AC50 under setting [1] was 25.9 µM [falling, partial curve]. Besides, the AC50 under setting [2] is 14.6 µM [falling, partial curve, poor fit].
On to `Fc1cccc(C2NC(=S)NC3=C2N2CCC3CC2)c1` (stereo not drawn), for which the cell number change is -6.83%. Besides, the AC50 under setting [1] is 2.31 µM [rising, single point].
Take `Cc1cccc2c1N(C(=O)CN1C(=O)c3ccccc3C1=O)C(C)(C)c1ssc(=S)c1-2`: the cell number change was -52.7%. Also, the AC50 under setting [1] was 3.66 µM [falling, full curve, poor fit]. The AC50 under setting [2] is 2.59 µM [falling, full curve].
Turning to `CCc1ccc2c(c1)/C(=C/C(=O)c1cccs1)C(=O)N2`, the cell number change is -91.1%. In addition, under setting [1], the AC50 is 29.1 µM [falling, single point].
For the compound `O=C(NNC(=O)C1CC=CCC1)c1ccccc1Cl` (stereo not drawn), the cell number change amounted to 1.65%. Besides, the AC50 under setting [2] was 2.91 µM [rising, full curve].
On to `Cc1onc(-c2c(F)cccc2Cl)c1C(=O)ONC(=O)c1ccco1`, for which the cell number change turned out to be 20.7%. Besides, the AC50 under setting [2] is 0.00411 µM [falling, full curve, poor fit].
On to `CCOC(=O)C1CCN(C(=O)CSc2ccccc2Cl)CC1`, for which the cell number change was determined as 18.5%. Under setting [1], the AC50 was 0.00461 µM [falling, full curve, poor fit]. Also, under setting [2], the AC50 is 0.00461 µM [falling, full curve, poor fit].
As for `Cc1ccc(N2CC(C(=O)NCCN3CCOCC3)CC2=O)cc1` (stereo not drawn), the cell number change is 8.97%.
As for `COc1cc(C(=O)NCCCCCCNC(=O)c2cc(OC)c(OC)c(OC)c2)cc(OC)c1OC`, the cell number change came out at 12.6%.
On to `Cc1occc1C(=O)NNC(=O)COc1ccc(Br)cc1Br`, for which the cell number change worked out at 7.62%. Further, under setting [1], the AC50 was 0.0411 µM [rising, full curve, poor fit].
Turning to `COC1=CC2(O)CCCC2=CC1=O` (stereo not drawn), the cell number change was -1.29%.
Regarding `O=C1N=C(N2CCN(c3ccccc3)CC2)S/C1=C\c1ccco1`, the cell number change amounted to 80.1%. Further, the AC50 under setting [1] is 20.6 µM [rising, partial curve].
Consider `Cc1ccc2nc(NC(=O)C3CCCN(S(=O)(=O)c4cccnc4)C3)sc2c1` (stereo not drawn), for which the cell number change was -17.9%. Besides, the AC50 under setting [2] is 23.1 µM [falling, single point].
Consider `C#CCOCCOCCOCCNc1nc(N2CCN(C(=O)CCCCCCCCCCNC(=O)[C@H]([C@@H](C)CC)n3cc(CCCCN=C(N)N)nn3)CC2)nc(N2CCN(C(=O)CCCCCCCCCCNC(=O)[C@H](CCCN=C(N)N)n3cc(C[C@@H](C)CC)nn3)CC2)n1`, for which the cell number change was -91.9%. Moreover, under setting [1], the AC50 is 16.4 µM [falling, partial curve, poor fit]. Further, the AC50 under setting [2] was 2.59 µM [falling, single point].
With `CCCCc1c(O)nc2sc3cc(OC)ccc3n2c1=O`, the AC50 under setting [2] is 10.3 µM [falling, partial curve].
For the compound `O=[N+]([O-])c1ccc(-c2nc(Nc3cccc(O)c3)c3ccccc3n2)cc1`, the cell number change is -24.3%. Under setting [2], the AC50 is 29.1 µM [falling, single point].
With `Cc1ccc(C2=Nc3c(ccc4ccccc34)C(c3ccncc3)=NN2)cc1`, the cell number change was -65%. In addition, the AC50 under setting [1] was 20.6 µM [falling, single point]. Also, the AC50 under setting [2] was 20.6 µM [falling, partial curve].
Regarding `CCC(=O)Nc1cccc(-c2nc3ccccc3c(=O)o2)c1`, the cell number change was 48.9%. Besides, the AC50 under setting [1] is 29.1 µM [rising, single point]. Moreover, the AC50 under setting [2] is 0.731 µM [rising, single point].
With `Cc1cccc(-c2noc(CN(C(=O)CCc3ccccc3)C(C)C)n2)c1`, the cell number change was -6.16%. Besides, the AC50 under setting [2] is 10.3 µM [rising, single point].
`C=CCOC(=O)C(C#N)c1nc2ccccc2nc1N1CCN(Cc2ccc3c(c2)OCO3)CC1` (stereo not drawn): the cell number change was 27.4%. Moreover, the half-maximal activity concentration (AC50) under setting [1] is 0.164 µM [rising, full curve, poor fit].
For `COc1ccc2[nH]c(=O)c(CN(C(=O)C3CCCO3)c3ccc(C)c(C)c3)cc2c1` (stereo not drawn), the cell number change was -2.46%. The AC50 under setting [2] is 0.092 µM [falling, full curve, poor fit].
As for `CC(=O)NC(=S)Nc1ccccc1N1CCCCC1`, the cell number change was -22.8%. Also, the AC50 under setting [1] was 4.11 µM [falling, full curve, poor fit]. Also, the AC50 under setting [2] was 1.64 µM [falling, partial curve, poor fit].
As to `NC(=O)C1CCN(C2CC(=O)NC2=O)CC1` (stereo not drawn), the cell number change was 7.91%. For the same compound, the AC50 under setting [2] is 18.4 µM [rising, single point].
With `CCC(=O)N1N=C(c2ccccc2)CC1c1ccc([N+](=O)[O-])cc1` (stereo not drawn), the cell number change was -2.36%. Besides, the AC50 under setting [2] was 1.3 µM [rising, full curve, poor fit].
Turning to `CCCN1C(=O)c2cc(C(=O)Nc3ccccc3CC)ccc2C1O` (stereo not drawn), the cell number change came to 9.74%. Further, the AC50 under setting [2] is 3.66 µM [rising, single point].
For `O=C(CCCCCn1c(=S)[nH]c2ccc(N3CCOCC3)cc2c1=O)NCc1ccccc1Cl`, the cell number change is -17.5%.
Consider `CNC(C)C#Cc1c(-c2cc(OC)c(OC)c(OC)c2)noc1C` (stereo not drawn), for which the cell number change is 40.8%. Moreover, the AC50 under setting [1] was 29.1 µM [rising, single point].
As to `Cc1ccc(NC(=O)COC(=O)C2CC3CCCC(C2)C3=O)c([N+](=O)[O-])c1` (stereo not drawn), the cell number change was -14.2%. Moreover, the concentration at half-maximal activity (AC50) under setting [2] was 0.0731 µM [falling, full curve, poor fit].
Take `CC(=O)Nc1ccc(S(=O)(=O)N2CCC(C(=O)O)CC2)cc1`: the cell number change was found to be 37.9%. Moreover, the concentration at half-maximal activity (AC50) under setting [1] was 29.1 µM [rising, single point].
Regarding `CN(C)CCNC(=O)C(=O)c1c(-c2ccccc2)cc2ccccn12`, the cell number change was -97.3%. For the same compound, the AC50 under setting [1] is 29.1 µM [falling, partial curve, poor fit]. Besides, the AC50 under setting [2] was 29.1 µM [falling, partial curve, poor fit].
`CC(C)(C)N1CC2([N+](=O)[O-])CN(C(C)(C)C)CC([N+](=O)[O-])(C1)C2`: the cell number change was -32.6%. The AC50 under setting [1] is 0.92 µM [falling, full curve, poor fit]. The AC50 under setting [2] is 1.64 µM [falling, partial curve, poor fit].
In the case of `Cc1sc2nc(SCCN(C)C)n(-c3ccccc3)c(=O)c2c1-c1ccc(F)cc1`, the cell number change was 39%. Also, the AC50 under setting [1] was 14.6 µM [rising, partial curve, poor fit]. Under setting [2], the half-maximal activity concentration (AC50) is 29.1 µM [rising, single point].
